Measured values reported in PMC6131810.
These are yes or no findings as the source states them, for the method shown. Binding seen in cells or lysates may run through a third protein. Some entries that bind do so weakly or less than the wild type.

Chains of the proteins cited; added tags and fusions are not shown.
UniProt Q91YI4: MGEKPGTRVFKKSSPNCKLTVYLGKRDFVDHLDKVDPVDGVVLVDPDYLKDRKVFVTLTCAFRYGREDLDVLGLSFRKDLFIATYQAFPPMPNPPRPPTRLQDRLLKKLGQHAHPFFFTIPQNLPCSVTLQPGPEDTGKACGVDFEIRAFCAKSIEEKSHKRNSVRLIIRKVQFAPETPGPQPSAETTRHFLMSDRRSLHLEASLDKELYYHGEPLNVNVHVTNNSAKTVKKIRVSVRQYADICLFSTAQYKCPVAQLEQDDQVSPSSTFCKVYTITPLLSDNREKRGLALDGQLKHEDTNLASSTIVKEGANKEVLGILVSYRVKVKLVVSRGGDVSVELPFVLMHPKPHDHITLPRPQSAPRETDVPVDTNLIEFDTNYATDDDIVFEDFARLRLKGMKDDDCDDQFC

T1: Transforming growth factor-beta-activated kinase 1 (TAK1)-binding protein 1 (mouse (endogenous in primary astrocytes)) (UniProt Q8CF89)
T1 sequence: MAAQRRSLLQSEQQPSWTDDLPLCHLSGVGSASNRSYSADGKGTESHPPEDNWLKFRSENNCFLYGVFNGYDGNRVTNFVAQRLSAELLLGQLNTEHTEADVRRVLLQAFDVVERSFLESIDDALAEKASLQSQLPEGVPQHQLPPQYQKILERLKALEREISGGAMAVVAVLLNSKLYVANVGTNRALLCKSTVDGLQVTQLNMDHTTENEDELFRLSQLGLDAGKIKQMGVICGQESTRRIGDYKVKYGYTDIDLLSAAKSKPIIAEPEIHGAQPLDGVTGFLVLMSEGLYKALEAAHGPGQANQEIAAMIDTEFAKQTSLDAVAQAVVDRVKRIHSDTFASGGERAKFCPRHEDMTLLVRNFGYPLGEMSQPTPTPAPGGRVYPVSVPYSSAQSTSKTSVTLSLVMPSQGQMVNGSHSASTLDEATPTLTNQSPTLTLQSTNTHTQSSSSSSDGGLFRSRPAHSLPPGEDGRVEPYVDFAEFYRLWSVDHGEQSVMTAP


Biological target: T1, Transforming growth factor-beta-activated kinase 1 (TAK1)-binding protein 1 (mouse (endogenous in primary astrocytes))
Test: co-IP; total lysate of mouse primary astrocytes incubated with anti-TAB1 antibody, then protein A/G plus agarose; bound proteins immunoblotted; cells pretreated with quinpirole for 1 h before LPS, WT α-Syn or A53T α-Syn

Row | Molecule | binding
1 | β-arrestin2 (from UniProt Q91YI4 1-410) | binds
2 | Transforming growth factor-beta-activated kinase 1 (protein, UniProt Q62073 1-579) MSTASAASSSSSSSASEMIEAPSQVLNFEEIDYKEIEVEEVVGRGAFGVVCKAKWRAKDVAIKQIESESERKAFIVELRQLSRVNHPNIVKLYGACLNPVCLVMEYAEGGSLYNVLHGAEPLPYYTAAHAMSWCLQCSQGVAYLHSMQPKALIHRDLKPPNLLLVAGGTVLKICDFGTACDIQTHMTNNKGSAAWMAPEVFEGSNYSEKCDVFSWGIILWEVITRRKPFDEIGGPAFRIMWAVHNGTRPPLIKNLPKPIESLMTRCWSKDPSQRPSMEEIVKIMTHLMRYFPGADEPLQYPCQYSDEGQSNSATSTGSFMDIASTNTSNKSDTNMEQVPATNDTIKRLESKLLKNQAKQQSESGRLSLGASRGSSVESLPPTSEGKRMSADMSEIEARIVATAGNGQPRRRSIQDLTVTGTEPGQVSSRSSSPSVRMITTSGPTSEKPARSHPWTPDDSTDTNGSDNSIPMAYLTLDHQLQPLAPCPNSKESMAVFEQHCKMAQEYMKVQTEIALLLQRKQELVAELDQDEKDQQNTSRLVQEHKKLLDENKSLSTYYQQCKKQLEVIRSQQQKRQGTS | binds
